From US20250304927A1, “PRO-PEPTIDE VARIANTS FOR MODULATING ACTIVITY OF TRANSGLUTAMINASES” (CURIE CO. INC., priority 2022, published 2025)
Not every detail of the peptide structures is certain; ends, links or a residue may be inferred. Where no end group is shown, it is not given here.

Chains of the proteins cited; added tags and fusions are not shown. Lines headed by an entry give the natural chain unless they say otherwise; changes in a name come on top. A line that says so, or that is headed by a name, gives the form on record, which may keep a tag or linker.
UniProt P81453, other isoform, or with tags, fused parts or gaps: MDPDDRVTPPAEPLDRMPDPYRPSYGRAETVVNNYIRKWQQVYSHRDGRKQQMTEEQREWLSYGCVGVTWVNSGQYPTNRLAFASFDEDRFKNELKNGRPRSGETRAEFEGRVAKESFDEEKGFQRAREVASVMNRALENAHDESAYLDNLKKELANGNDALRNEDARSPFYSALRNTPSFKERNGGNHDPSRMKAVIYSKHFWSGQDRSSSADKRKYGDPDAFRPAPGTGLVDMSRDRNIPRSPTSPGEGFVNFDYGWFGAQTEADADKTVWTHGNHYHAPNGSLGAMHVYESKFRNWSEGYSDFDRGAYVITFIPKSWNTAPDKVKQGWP

How the values were obtained:
[1] = biological target: T1, thermostable mature transglutaminase variant (SEQ ID NO: 3) (Streptomyces mobaraensis, UniProt P81453); type: biochemical; conditions: casein assay, Method A; for Improvement in binding affinity of inhibitory peptide relative to WT: decrease in transglutaminase activity relative to wild-type pro-peptide; for Reduction in binding affinity of inhibitory peptide relative to WT: increase in transglutaminase activity relative to wild-type pro-peptide
T1 construct: made in house; host or cells: E. coli (lysate)
Description: (§1) Method A. A bicistronic expression vector encoding the wild-type pro-domain of transglutaminase (SEQ ID NO: 2) and a thermostable mature transglutaminase variant (SEQ ID NO: 3) as separate polypeptides was cloned as described in PCT/US20/49226 (WO2021/178001 A1). The vector was used as a template for synthesis of a random mutagenesis library targeting the pro-domain coding sequence to create pro-domain peptide variants.
(§2) Method A. Plasmid libraries containing mature transglutaminase and variant pro-domain peptides were plated on Luria-Bertani (LB) agar plates containing 50 μg/mL of kanamycin. After incubation for at least 16 hours at 37° C., colonies were picked and inoculated into 1 mL of LB broth with 50 μg/mL kanamycin in one well of a 96 deep well culture plate. The plate was covered with a breathable seal and incubated overnight at 37° C. with 400 rpm of shaking. 10 μL of the seed culture was used to inoculate 1 mL of media in a 96 deep well culture plate for expression. The expression plate was allowed to grow for 6-8 hours at 30° C. Expression was then induced by adding isopropyl beta-D-1-thiogalactopyranoside (IPTG) to a final concentration of 1 mM and the temperature was reduced to 20° C. while growth continued for an additional 15 hours. Cells were harvested by centrifugation at 4000 rcf for 30 minutes and pellets were frozen at −80° C.
A secondary screen was performed to determine initial rate of transglutaminase in the presence of the pro-peptide variants using transglutaminase-catalyzed labeling of casein with dansylcadaverine (e.g., a commercially available kit such as the Transglutaminase Fluorogenic Activity Assay Kit, T036, Zedira, Germany). Transglutaminase activity was monitored by measuring the fluorescence (excitation wavelength 332 nm; emission wavelength 500 nm) using a BioTek Synergy H1 microplate reader. Transglutaminase-catalyzed covalent coupling (crosslinking) of monodansylcadaverine with N,N-dimethylcasein produces a product that causes a shift in intensity and wavelength of fluorescence of the dansyl group now linked to the casein. The relative transglutaminase activity is shown by increase of fluorescence intensity over time. The data were normalized for transglutaminase expression levels in E. coli lysate as described above. Pro-domain variants were identified based on their ability to alter the activity of the mature transglutaminase enzyme. […]
It is believed that these pro-peptide variants have reduced binding affinity with mature mTgase.

[2] = biological target: T1, thermostable mature transglutaminase variant (SEQ ID NO: 3); experiment: pH-responsiveness screen: casein/dansylcadaverine assay at pH 6.0 and pH 8.0 in the presence of pro-peptide variants (Method A); type: biochemical; conditions: casein assay initial rates, pH 6.0 relative to pH 8.0, normalized for expression
Description: as §1, §2
A secondary screen was performed to determine initial rate of transglutaminase in the presence of the pro-peptide variants using transglutaminase-catalyzed labeling of casein with dansylcadaverine (e.g., a commercially available kit such as the Transglutaminase Fluorogenic Activity Assay Kit, T036, Zedira, Germany). Transglutaminase activity was monitored by measuring the fluorescence (excitation wavelength 332 nm; emission wavelength 500 nm) using a BioTek Synergy H1 microplate reader. Transglutaminase-catalyzed covalent coupling (crosslinking) of monodansylcadaverine with N,N-dimethylcasein produces a product that causes a shift in intensity and wavelength of fluorescence of the dansyl group now linked to the casein. The relative transglutaminase activity is shown by increase of fluorescence intensity over time. The data were normalized for transglutaminase expression levels in E. coli lysate as described above. Pro-domain variants were identified based on their ability to alter the activity of the mature transglutaminase enzyme.
To evaluate pH-responsiveness, initial rates of the active transglutaminase in the presence of pro-peptide variants were determined at pH 6.0 and pH 8.0 using the casein assay. Briefly, this assay was conducted at pH 6.0 and pH 8.0 for each pro-peptide variant to interrogate pH-responsive modulation of mature transglutaminase activity. Activity of the mature enzyme in the presence of each pro-peptide variant was normalized against transglutaminase expression levels using a commercially available ELISA (Zedira E021).

| Sequence | Improvement in binding affinity of inhibitory peptide relative to WT [1] [fold] | Improvement in pH responsiveness of inhibitory peptide relative to WT [2] [fold] | Reduction in binding affinity of inhibitory peptide relative to WT [1] [fold] |
| --- | --- | --- | --- |
| MDNGAGEETKSYAEVYRLTADDVANINALNESAPAASSAGPSFRAP [Variant T15V] | >1.2 | >1.2 | – |
| MDNGAGEETKSYAETYRITADDVANINALNESAPAASSAGPSFRAP [Variant L18I] | >1.2 | >1.2 | – |
| MDNGAGENTKSYAETYRLTADDVANINALNESAPAASSAGPSFRAP [Variant E8N] | >1.2 | >1.2 | – |
| MDNGAGEETKSYAETYRLTADDVANINALNESAPAASSAGPSFRAV [Variant P46V] | >1.2 | >1.2 | – |
| MDNGAGEETKSYAETYRLTARDVANINALNESAPAASSAGPSFRAP [Variant D21R] | – | >1.2 | >5 |
| MDNGAGEETKSYASTYRLTADDVANINALNESAPAASSAGPSFRAP [Variant E14S] | >1.2 | >5 | – |
| MDNGAGEETKSYAETYRLTADDVANINALNESAPAASSAGPSFRAK [Variant P46K] | >1.2 | >1.2 | – |
| MDNGAGVETKSYAETYRLTADDVANINALNESAPAASSAGPSFRAP [Variant E7V] | >1.2 | >5 | – |
| MDNGAGEEWKSYAETYRLTADDVANINALNESAPAASSAGPSFRAP [Variant T9W] | >1.2 | >1.2 | – |
| MDNGAGEETKSYAETYRLTADDVANINALNESAPAASSAGPSFRAC [Variant P46C] | >1.2 | >1.2 | – |
| MDNGAGEETKSYAEDYRLTADDVANINALNESAPAASSAGPSFRAP [Variant T15D] | >1.2 | >1.2 | – |
| MDNGAGNETKSYAETYRLTADDVANINALNESAPAASSAGPSFRAP [Variant E7N] | >1.2 | >5 | – |
| MDNGAGEEGKSYAETYRLTADDVANINALNESAPAASSAGPSFRAP [Variant T9G] | >1.2 | >1.2 | – |
| MINGAGEETKSYAETYRLTADDVANINALNESAPAASSAGPSFRAP [Variant D2I] | >1.2 | >1.2 | – |
| MDNGAGEETKSYAETYRLTADDVHNINALNESAPAASSAGPSFRAP [Variant A24H] | – | >5 | >1.2 |
| MDNGAGEETKSYAETYRLTADDVANINALNESAPAASSAGPSFRAQ [Variant P46Q] | >1.2 | >1.2 | – |
| MDNGAGEETKSYAETYRLTADDVANINALNESAPAASSAGPSFRAS [Variant P46S] | >1.2 | >1.2 | – |
| MDNGAGEQTKSYAETYRLTADDVANINALNESAPAASSAGPSFRAP [Variant E8Q] | >1.2 | >5 | – |
| MDNGAGEETKSYAETYRLTAFDVANINALNESAPAASSAGPSFRAP [Variant D21F] | >1.2 | >1.2 | – |
| MDNGAGEETKSYAETYRLTADDVANINALNESAPAASFAGPSFRAP [Variant S38F] | >1.2 | >1.2 | – |

| Sequence | Improvement in binding affinity of inhibitory peptide relative to WT [1] [fold] | Improvement in pH responsiveness of inhibitory peptide relative to WT [2] [fold] | Reduction in binding affinity of inhibitory peptide relative to WT [1] [fold] |
| --- | --- | --- | --- |
| MDNGAGEETKSYAETYRLTADDVANINALNESAPAASSAGPSFRAW [Variant P46W] | >1.2 | >1.2 | – |
| MDNGAGECTKSYAETYRLTADDVANINALNESAPAASSAGPSFRAP [Variant E8C] | >1.2 | >1.2 | – |
| MDNGAGEELKSYAETYRLTADDVANINALNESAPAASSAGPSFRAP [Variant T9L] | >1.2 | >1.2 | – |
| MSNGAGEETKSYAETYRLTADDVANINALNESAPAASSAGPSFRAP [Variant D2S] | >1.2 | >1.2 | – |
| MDNGAGEETKSYAETYRLTADAVANINALNESAPAASSAGPSFRAP [Variant D22A] | >1.2 | >1.2 | – |
| MDNGAGEERKSYAETYRLTADDVANINALNESAPAASSAGPSFRAP [Variant T9R] | >1.2 | >1.2 | – |
| MDNGAGTETKSYAETYRLTADDVANINALNESAPAASSAGPSFRAP [Variant E7T] | >1.2 | >1.2 | – |
| MDNGAGEETKSYAETYRLTACDVANINALNESAPAASSAGPSFRAP [Variant D21C] | >1.2 | >1.2 | – |
| MTNGAGEETKSYAETYRLTADDVANINALNESAPAASSAGPSFRAP [Variant D2T] | >1.2 | >1.2 | – |
| MDNGAGEETKSYAETYRLTADDVANINALNESAPAASSAGPSFRAD [Variant P46D] | >1.2 | >1.2 | – |
| MDNGAGEETKSYAETYRLTADDVPNINALNESAPAASSAGPSFRAP [Variant A24P] | – | – | >5 |
| MDNGAGHETKSYAETYRLTADDVANINALNESAPAASSAGPSFRAP [Variant E7H] | >1.2 | – | – |
| MDNGAGEVTKSYAETYRLTADDVANINALNESAPAASSAGPSFRAP [Variant E8V] | >1.2 | – | – |
| MDNGAGEETKSYAETYRLTADNVANINALNESAPAASSAGPSFRAP [Variant D22N] | >1.2 | – | – |
| MDNGAGEETKSYAETYRLTADDVMNINALNESAPAASSAGPSFRAP [Variant A24M] | >1.2 | – | – |
| MDNGAGDETKSYAETYRLTADDVANINALNESAPAASSAGPSFRAP [Variant E7D] | >1.2 | – | – |
| MDNGAGEEIKSYAETYRLTADDVANINALNESAPAASSAGPSFRAP [Variant T9I] | >1.2 | – | – |
| MDNGAGEETKSYAETYRLTADDVENINALNESAPAASSAGPSFRAP [Variant A24E] | – | – | >1.2 |
| MDNGAGEETKSYAETYRFTADDVANINALNESAPAASSAGPSFRAP [Variant L18F] | >1.2 | – | – |
